The assay deals with recombinant human ROR1-IgG1-Fc (human) (UniProt Q01973). The experiment in a line: flow cytometry; CAR T cells stained with recombinant human ROR1-IgG1-Fc and mouse anti-human IgG-PE.

Chains of the proteins cited; added tags and fusions are not shown. Lines headed by an entry give the natural chain unless they say otherwise; changes in a name come on top.
UniProt Q01973: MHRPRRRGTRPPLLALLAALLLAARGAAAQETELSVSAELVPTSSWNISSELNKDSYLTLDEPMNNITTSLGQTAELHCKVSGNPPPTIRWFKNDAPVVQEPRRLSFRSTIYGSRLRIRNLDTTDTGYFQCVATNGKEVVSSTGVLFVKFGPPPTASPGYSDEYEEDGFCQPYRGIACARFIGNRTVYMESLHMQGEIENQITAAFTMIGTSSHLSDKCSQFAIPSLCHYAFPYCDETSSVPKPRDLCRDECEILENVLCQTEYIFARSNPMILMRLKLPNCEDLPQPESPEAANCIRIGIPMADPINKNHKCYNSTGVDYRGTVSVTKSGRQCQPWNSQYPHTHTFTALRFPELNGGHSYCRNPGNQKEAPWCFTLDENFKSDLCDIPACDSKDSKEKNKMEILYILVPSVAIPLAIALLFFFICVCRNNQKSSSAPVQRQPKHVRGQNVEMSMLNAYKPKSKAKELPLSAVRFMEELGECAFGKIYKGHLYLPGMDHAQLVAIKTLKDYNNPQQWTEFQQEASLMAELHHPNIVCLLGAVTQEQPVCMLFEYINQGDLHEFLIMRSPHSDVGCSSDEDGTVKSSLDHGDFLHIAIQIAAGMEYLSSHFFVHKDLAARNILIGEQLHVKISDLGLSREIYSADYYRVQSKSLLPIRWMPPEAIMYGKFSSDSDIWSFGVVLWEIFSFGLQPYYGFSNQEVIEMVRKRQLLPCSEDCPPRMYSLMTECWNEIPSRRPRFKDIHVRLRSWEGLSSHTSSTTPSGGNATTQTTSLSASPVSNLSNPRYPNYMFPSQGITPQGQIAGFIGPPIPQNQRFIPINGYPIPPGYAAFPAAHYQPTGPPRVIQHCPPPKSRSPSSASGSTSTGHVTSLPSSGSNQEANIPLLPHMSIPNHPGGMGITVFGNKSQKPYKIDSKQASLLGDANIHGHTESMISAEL

These are yes or no findings as the source states them, for the method shown. Some entries that bind do so weakly or less than the wild type.

B1: anti-ROR1 CAR60 (scFv, V domains shown)
VH: EVQLVQSGGDLVQPGGSLRLSCAASGFTFSSYSMNWVRQAPGKGLEWVSSISSSSSYIYYADSVKGRFTISRDNAKNSLYLQMNSLRAEDTAVYYCARGLGGWTHDAFDIWGQGTTVTVSS
VL: QSALTQPASVSGSPGQSITISCTGTSSDVGGYNYVSWYQQHPGKAPKLMIYDVSKRPSGVSNRFSGSKSGNTASLTISGLQAEDEADYYCSSYTGRSTVFGGGTKLTVLG
Take B1: the binding result is “binds”.

B2: anti-ROR1 CAR45 (scFv, V domains shown)
VH: QVQLQQSGAEVKKPGASVKVSCKASGYTFSRYYIHWVRRAPGQGLEWMGLINPGGGSTNYAQKFQGRVTMTRDTSTNTVYLELSSLRSDDTAVYYCARDYGTIDARRFDFWGQGTLVTVSS
VL: QSALTQPPSASGTPGQRVTISCPGSSSNIGSNYVYWYQQLPGTAPKLLIYRNNQRPSGVPDRFSGSKSGTSATLGITGLQTGDEADYYCGTWDSSLSAYVFGTGTKVTVLG
For B2, the binding result was “binds”.

B3: anti-ROR1 CAR50 (scFv, V domains shown)
VH: QVQLVQSGAEVKEPGASVKVSCKASGYTFRNSGITWVRQAPGQGLEWMGWINPNSGGAMYVDNFQGRATMTRDTSINTAYMELRSLSSDDTAVYYCARGMADLIDVFDIWGQGTLVTVSS
VL: TQPALTQPASVSGSPGQSITISCTGTSSDFGDYDYVSWYQQHPGKAPKLMIYDVSDRPSGVSNRFSGSKSGNTASLTISGLQAEDEADYFCSSFTTSSTLVFGGGTKLTVLG
As for B3, the binding entry was “binds”.

B4: anti-ROR1 CAR54 (scFv, V domains shown)
VH: QVQLQESGPGLVKSSETLSLTCTVSGGSMNNYYWSWIRQPAGKGLEWMGRIYSSGSTNYNPALKSRVTMSVDTSKNQFSLNLSSVTAADTAIYYCARASWSGTYWALFDYWGQGTLVTVSS
VL: ETTLTQSPAFMSATPGDKVNISCKASQDIDDDLNWYQQKPGEAPILIIQEATTLVPGIPPRFSGSGFGTDFTLTINSMQSEDVAYYFCLQHDNFPPTFGQGTKVEIKR
Regarding B4, the binding entry is on record as “binds”.

B5: anti-ROR1 CAR53 (scFv, V domains shown)
VH: QVTLKESGPTLLKPTQTLTLTCTFSGFSLSTRGVGVGWIRQPPGQALEWLTLIYWDDDKRYSPSLKSRLTITKDTSKNQVVLTMTNMESVDTATYYCAQQTMTGAFDIWGQGTTVTVSS
VL: DIQMTQSPSSVSASVGDRVTITCRASQGISTLLAWYQQKPGKAPKLLISSASSLQSGVPARFSGSGSGTDFTLTISSLQPEDFATYYCQQSYRAPTFGQGTKVEIKR
For the molecule B5, the binding entry is recorded as “binds”.

These data come from patent US20180147271A1.
